PubChem BioAssay AID1259254, NCATS – 2017

Aim: 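Gene knock-downs that lead to re-replication, shown by excess G2 DNA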 (primary screen)
Cells: human HCT116 colorectal cancer cells
Knock-down reagent: single siRNA against human genes
Timing: 3 days
Read-out: 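Nuclei stained with Hoechst and imaged; cell-cycle phase assigned by DNA content; G2 share scaled per plate, non-targeting siRNA 0%, GMNN siRNA 100%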
Reading the numbers: G2 robust z-score and G2 cells, % of GMNN control: higher = more G2 cells, more excess DNA replication; raw share of cells in G2: higher = larger share of cells with G2 DNA content
Active means: 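An siRNA counts as active if its G2 robust z-score lies at least 5 MADs above the screen median; here such calls match roughly 38% of GMNN control or more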
Here is a random part of about 59,000 reagents. About 1,550 of all reagents (2.6%) were called active. 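G2 share is only a proxy for re-replication; each gene was hit by three separate siRNAs, and active genes were retested.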 The raw values are shown without normalisation. The numbers tell different reagents against one gene apart. Not given: the amount of reagent.

| gene symbol | reagent | G2 robust z-score | G2 cells, % of GMNN control | raw share of cells in G2 (%) | outcome |
| --- | --- | --- | --- | --- | --- |
| SRMS (GeneID 6725) | 1 | 0.806 | 8.64 | 8.46 | inactive |
| SRMS (GeneID 6725) | 2 | -0.485 | -0.447 | 3.87 | inactive |
| SRMS (GeneID 6725) | 3 | -0.878 | -3.21 | 4.33 | inactive |
| RPS15AP34 (GeneID 390735) | 1 | 1.35 | 12.4 | 9.95 | inactive |
| RPS15AP34 (GeneID 390735) | 2 | 7.52 | 55.9 | 24.1 | active |
| RPS15AP34 (GeneID 390735) | 3 | 0.141 | 3.96 | 5.09 | inactive |
| FBXL17 (GeneID 64839) | 1 | 0.35 | 5.43 | 6.94 | inactive |
| FBXL17 (GeneID 64839) | 2 | 2.92 | 23.5 | 15.1 | inactive |
| FBXL17 (GeneID 64839) | 3 | 1.69 | 14.9 | 6.62 | inactive |
| SMURF1 (GeneID 57154) | 1 | -0.663 | -1.7 | 5.68 | inactive |
| SMURF1 (GeneID 57154) | 2 | 1.65 | 14.6 | 10.4 | inactive |
| SMURF1 (GeneID 57154) | 3 | -0.196 | 1.59 | 5.01 | inactive |
| RGS13 (GeneID 6003) | 1 | 0.494 | 6.44 | 7.19 | inactive |
| RGS13 (GeneID 6003) | 2 | 0.0143 | 3.07 | 5.85 | inactive |
| RGS13 (GeneID 6003) | 3 | -1.25 | -5.81 | 2.21 | inactive |
| DEFB106A (GeneID 245909) | 1 | -0.77 | -2.45 | 2.41 | inactive |
| DEFB106A (GeneID 245909) | 2 | 0.831 | 8.82 | 6.77 | inactive |
| DEFB106A (GeneID 245909) | 3 | -0.744 | -2.27 | 2.35 | inactive |
| DES (GeneID 1674) | 1 | -0.0731 | 2.45 | 5.84 | inactive |
| DES (GeneID 1674) | 2 | -1.32 | -6.3 | 2.69 | inactive |
| DES (GeneID 1674) | 3 | 0.439 | 6.05 | 6.18 | inactive |
| ZBTB49 (GeneID 166793) | 1 | -0.325 | 0.683 | 3.33 | inactive |
| ZBTB49 (GeneID 166793) | 2 | -0.0206 | 2.82 | 4.15 | inactive |
| ZBTB49 (GeneID 166793) | 3 | -0.161 | 1.83 | 4.17 | inactive |
| SEC61A1 (GeneID 29927) | 1 | 2.18 | 18.3 | 14.5 | inactive |
| SEC61A1 (GeneID 29927) | 2 | 4.06 | 31.5 | 14.6 | inactive |
| SEC61A1 (GeneID 29927) | 3 | 2.94 | 23.7 | 11.7 | inactive |
| C6orf89 (GeneID 221477) | 1 | 1.18 | 11.3 | 7.67 | inactive |
| C6orf89 (GeneID 221477) | 2 | 1.26 | 11.8 | 7.18 | inactive |
| C6orf89 (GeneID 221477) | 3 | -0.591 | -1.19 | 2.81 | inactive |
| HBA1 (GeneID 3039) | 1 | -0.155 | 1.88 | 6.4 | inactive |
| HBA1 (GeneID 3039) | 2 | -0.77 | -2.45 | 3.3 | inactive |
| HBA1 (GeneID 3039) | 3 | 4.08 | 31.7 | 16.6 | inactive |
| COA3 (GeneID 28958) | 1 | 0.184 | 4.26 | 5.48 | inactive |
| COA3 (GeneID 28958) | 2 | -0.522 | -0.704 | 4.28 | inactive |
| COA3 (GeneID 28958) | 3 | 6.53 | 48.9 | 18.7 | active |
| SHC2 (GeneID 25759) | 1 | -0.57 | -1.04 | 3.65 | inactive |
| SHC2 (GeneID 25759) | 2 | 4.44 | 34.2 | 21.7 | inactive |
| SHC2 (GeneID 25759) | 3 | 0.376 | 5.61 | 6.05 | inactive |
| SLA2 (GeneID 84174) | 1 | -1.11 | -4.81 | 2.51 | inactive |
| SLA2 (GeneID 84174) | 2 | 8.19 | 60.6 | 21.4 | active |
| SLA2 (GeneID 84174) | 3 | -0.384 | 0.268 | 2.49 | inactive |

Laid out differently: 7 of the entries above
{"gene symbol": "ZBTB49 (GeneID 166793)", "reagent": 3, "G2 robust z-score": -0.161, "G2 cells, % of GMNN control": 1.83, "raw share of cells in G2 (%)": 4.17, "outcome": "inactive"}
{"gene symbol": "SEC61A1 (GeneID 29927)", "reagent": 1, "G2 robust z-score": 2.18, "G2 cells, % of GMNN control": 18.3, "raw share of cells in G2 (%)": 14.5, "outcome": "inactive"}
{"gene symbol": "SEC61A1 (GeneID 29927)", "reagent": 2, "G2 robust z-score": 4.06, "G2 cells, % of GMNN control": 31.5, "raw share of cells in G2 (%)": 14.6, "outcome": "inactive"}
{"gene symbol": "SEC61A1 (GeneID 29927)", "reagent": 3, "G2 robust z-score": 2.94, "G2 cells, % of GMNN control": 23.7, "raw share of cells in G2 (%)": 11.7, "outcome": "inactive"}
{"gene symbol": "C6orf89 (GeneID 221477)", "reagent": 1, "G2 robust z-score": 1.18, "G2 cells, % of GMNN control": 11.3, "raw share of cells in G2 (%)": 7.67, "outcome": "inactive"}
{"gene symbol": "C6orf89 (GeneID 221477)", "reagent": 2, "G2 robust z-score": 1.26, "G2 cells, % of GMNN control": 11.8, "raw share of cells in G2 (%)": 7.18, "outcome": "inactive"}
{"gene symbol": "C6orf89 (GeneID 221477)", "reagent": 3, "G2 robust z-score": -0.591, "G2 cells, % of GMNN control": -1.19, "raw share of cells in G2 (%)": 2.81, "outcome": "inactive"}

Continued:
| gene symbol | reagent | G2 robust z-score | G2 cells, % of GMNN control | raw share of cells in G2 (%) | outcome |
| --- | --- | --- | --- | --- | --- |
| RAB28 (GeneID 9364) | 1 | 1.58 | 14.1 | 9.74 | inactive |
| RAB28 (GeneID 9364) | 2 | -0.408 | 0.0996 | 5.3 | inactive |
| RAB28 (GeneID 9364) | 3 | -0.87 | -3.15 | 3.1 | inactive |
| LST1 (GeneID 7940) | 1 | -0.5 | -0.547 | 4.89 | inactive |
| LST1 (GeneID 7940) | 2 | 0.189 | 4.3 | 5.6 | inactive |
| LST1 (GeneID 7940) | 3 | -0.409 | 0.09 | 3.38 | inactive |
| MIR663AHG (GeneID 284801) | 1 | 1.45 | 13.2 | 7.27 | inactive |
| MIR663AHG (GeneID 284801) | 2 | 3.15 | 25.1 | 12.8 | inactive |
| MIR663AHG (GeneID 284801) | 3 | 0.0445 | 3.28 | 4.31 | inactive |
| ZNF251 (GeneID 90987) | 1 | -0.522 | -0.706 | 3.28 | inactive |
| ZNF251 (GeneID 90987) | 2 | -0.428 | -0.0441 | 3.15 | inactive |
| ZNF251 (GeneID 90987) | 3 | -0.563 | -0.993 | 2.75 | inactive |
| FAM91A3P (GeneID 729182) | 1 | 0.75 | 8.24 | 6.32 | inactive |
| FAM91A3P (GeneID 729182) | 2 | 0.528 | 6.68 | 6.49 | inactive |
| FAM91A3P (GeneID 729182) | 3 | 3.52 | 27.7 | 12.3 | inactive |
| CSAG1 (GeneID 158511) | 1 | -0.319 | 0.726 | 2.99 | inactive |
| CSAG1 (GeneID 158511) | 2 | -0.178 | 1.72 | 4.22 | inactive |
| CSAG1 (GeneID 158511) | 3 | -0.557 | -0.951 | 2.64 | inactive |
| OR14A16 (GeneID 284532) | 1 | -0.678 | -1.8 | 2.98 | inactive |
| OR14A16 (GeneID 284532) | 2 | -0.439 | -0.125 | 3 | inactive |
| OR14A16 (GeneID 284532) | 3 | -0.705 | -2 | 2.66 | inactive |
| PAPOLG (GeneID 64895) | 1 | -0.0893 | 2.34 | 6.62 | inactive |
| PAPOLG (GeneID 64895) | 2 | 0.217 | 4.49 | 5.86 | inactive |
| PAPOLG (GeneID 64895) | 3 | 0.929 | 9.5 | 7.71 | inactive |
| ARHGEF2 (GeneID 9181) | 1 | 7.63 | 56.7 | 25 | active |
| ARHGEF2 (GeneID 9181) | 2 | -0.333 | 0.623 | 5.48 | inactive |
| ARHGEF2 (GeneID 9181) | 3 | -0.713 | -2.05 | 3.61 | inactive |
| EIF2S3 (GeneID 1968) | 1 | 2.42 | 20 | 12.5 | inactive |
| EIF2S3 (GeneID 1968) | 2 | 2 | 17.1 | 11.7 | inactive |
| EIF2S3 (GeneID 1968) | 3 | 0.116 | 3.78 | 5 | inactive |
| ALG8 (GeneID 79053) | 1 | 2.19 | 18.4 | 13.3 | inactive |
| ALG8 (GeneID 79053) | 2 | -0.516 | -0.666 | 4.11 | inactive |
| ALG8 (GeneID 79053) | 3 | 0.315 | 5.19 | 6.11 | inactive |
| ESRP2 (GeneID 80004) | 1 | -1.31 | -6.22 | 0.677 | inactive |
| ESRP2 (GeneID 80004) | 2 | 1.93 | 16.6 | 11.3 | inactive |
| ESRP2 (GeneID 80004) | 3 | 0.735 | 8.14 | 7.86 | inactive |
| DSCC1 (GeneID 79075) | 1 | 0.14 | 3.95 | 6.3 | inactive |
| DSCC1 (GeneID 79075) | 2 | -0.847 | -2.99 | 3.27 | inactive |
| DSCC1 (GeneID 79075) | 3 | -0.634 | -1.49 | 2.3 | inactive |
| CARS2 (GeneID 79587) | 1 | -0.605 | -1.29 | 5.11 | inactive |
| CARS2 (GeneID 79587) | 2 | 0.258 | 4.78 | 6.04 | inactive |
| CARS2 (GeneID 79587) | 3 | 0.621 | 7.34 | 6.89 | inactive |
| FAM177A1 (GeneID 283635) | 1 | 1.16 | 11.2 | 6.66 | inactive |
| FAM177A1 (GeneID 283635) | 2 | 4.32 | 33.4 | 15.8 | inactive |
| FAM177A1 (GeneID 283635) | 3 | 0.211 | 4.46 | 4.77 | inactive |
